These are yes or no findings as the source states them, for the method shown. Binding seen in cells or lysates may run through a third protein. Here binding means that the protein was enriched with, or labelled near, the bait; the list need not be complete. Where a sequence is shown, tags or fusion partners need not be part of it.
B1: 26S proteasome non-ATPase regulatory subunit 1 (protein, UniProt O88761 1-953)
chain: MITSAAGIISLLDEEEPQLKEFALHKLNAVVNDFWAEISESVDKIEVLYEDEGFRSRQFAALVASKVFYHLGAFEESLNYALGAGDLFNVNDNSEYVETIIAKCIDHYTKQCVENADLPEGEKKPIDQRLEGIVNKMFQRCLDDHKYKQAIGIALETRRLDVFEKTILESNDVPGMLAYSLKLCMSLMQNKQFRNKVLRVLVKIYMNLEKPDFINVCQCLIFLDDTQAVSDILEKLVKEDNLLMAYQICFDLYESASQQFLSSVIQNLRTVGTPIASVPGSTNTGTVPGPEKDSDSMETEEKTAGAVAGKTPDASPEPKDQTLKMIKILSGEMAIELHLQFLIRNNNTDLMILKNTKDAVRNSVCHTATVIANSFMHCGTTSDQFLRDNLEWLARATNWAKFTATASLGVIHKGHEKEALQLMATYLPKDTSPGSAYQEGGGLYALGLIHANHGGDIIDYLLNQLKNASNDIVRHGGSLGLGLAAMGTARQDVYDLLKTNLYQDDAVTGEAAGLALGLVMLGSKNTQAIEDMVGYAQETQHEKILRGLAVGIALVMYGRMEEADALIESLCRDKDPILRRSGMYTVAMAYCGSGNNKAIRRLLHVAVSDVNDDVRRAAVESLGFILFRTPEQCPSVVSLLSESYNPHVRYGAAMALGVCCAGTGNKEAINLLEPMTNDPVNYVRQGALIASALIMIQQTEITCPKVNQFRQLYSKVINDKHDDVMAKFGAILAQGILDAGGHNVTISLQSRTGHTHMPSVVGVLVFTQFWFWFPLSHFLSLAYTPTCIIGLNKDLKMPKVQYKSNCKPSTFAYPAPLEVPKEKEKEKVSTAVLSITAKAKKKEKEKEKKEEEKMEVDEAEKKEEKEKKKEPEPNFQLLDNPARVMPAQLKVLSMTETCRYQPFKPLSIGGIIILKDTSEDIEELVEPVAAHGPKIEEEEQEPEPPEPFEYIDD
B2: ATP-sensitive inward rectifier potassium channel 11 (protein, UniProt P70673 1-390)
chain: MLSRKGIIPEEYVLTRLAEDPTEPRYRTRERRARFVSKKGNCNVAHKNIREQGRFLQDVFTTLVDLKWPHTLLIFTMSFLCSWLLFAMVWWLIAFAHGDLAPGEGTNVPCVTSIHSFSSAFLFSIEVQVTIGFGGRMVTEECPLAILILIVQNIVGLMINAIMLGCIFMKTAQAHRRAETLIFSKHAVITLRHGRLCFMLRVGDLRKSMIISATIHMQVVRKTTSPEGEVVPLHQVDIPMENGVGGNSIFLVAPLIIYHVIDSNSPLYDLAPSDLHHHQDLEIIVILEGVVETTGITTQARTSYLADEILWGQRFVPIVAEEDGRYSVDYSKFGNTVKVPTPLCTARQLDEDRSLLDALTLASSRGPLRKRSVAVAKAKPKFSISPDSLS
B3: Heterogeneous nuclear ribonucleoprotein Q (protein, UniProt Q7TP47 1-533)
chain: MATEHVNGNGTEEPMDTTSAVIHSENFQTLLDAGLPQKVAEKLDEIYVAGQRKYGGPPPDSVYSGQQPSVGTEIFVGKIPRDLFEDELVPLFEKAGPIWDLRLMMDPLTGLNRGYAFVTFCTKEAAQEAVKLYNNHEIRSGKHIGVCISVANNRLFVGSIPKSKTKEQILEEFSKVTEGLTDVILYHQPDDKKKNRGFCFLEYEDHKTAAQARRRLMSGKVKVWGNVGTVEWADPIEDPDPEVMAKVKVLFVRNLANTVTEEILEKSFSQFGKLERVKKLKDYAFIHFDERDGAVKAMEEMNGKDLEGENIEIVFAKPPDQKRKERKAQRQAAKNQMYDDYYYYGPPHMPPPTRGRGRGGRGGYGYPPDYYGYEDYYDYYGYDYHNYRGGYEDPYYGYEDFQVGARGRGGRGARGAAPSRGRGAAPPRGRAGYSQRGGPGSARGVRGARGGAQQQRGRGVRGARGGRGGNVGGKRKADGYNQPDSKRRQTNNQNWGSQPIAQQPLQGGDHSGNYGYKSENEEFYQDTFGQQWK
B4: Pre-mRNA-processing factor 3 (protein, UniProt A0A0G2JTI7 1-101)
chain: MALSKRELDELKPWIEKTVKRVLGFSEPTVVTAALNCVGKGMDKKKAADHLKPFLDDSTLRFVDKLFEAVEEGRSSRHSKSSSDRSRKRELKEFQEALAPG
B5: Nuclear cap-binding protein subunit 1 (protein, UniProt Q56A27 1-790)
chain: MSRRRHSYENDGGQPHKRRKTSDANETEDHLESLICKVGEKSACSLESNLEGLAGVLEADLPNYKSKILRLLCTVARLLPEKLTIYTTLVGLLNARNYNFGGEFVEAMIRQLKESLKANNYNEAVYLVRFLSDLVNCHVIAAPSMVAMFENFVSVTQEEDVPQVRRDWYVYAFLSSLPWVGKELYEKKDAEMDRIFSSTESYLKRRQKTHVPMLQVWTADKPHPQEEYLDCLWAQIQKLKKDRWQERHILRPYLAFDSILCEALQHNLPPFTPPPHTEDSVYPMPRVIFRMFDYTDDPEGPVMPGSHSVERFVIEENLHCIIKSYWKERKTCAAQLVSYPGKNKIPLNYHIVEVIFAELFQLPAPPHIDVMYTTLLIELCKLQPGSLPQVLAQATEMLYMRLDTMSTTCVDRFINWFSHHLSNFQFRWSWEDWSDCLTQDLESPKPKFVREVLEKCMRLSYHQHILDIVPPTFSALCPANPTCIYKYGDESSNSLPGHSVALCLSVAFKSKATNDEIFSILKDVPNPNQVDDDDEGFRFNPLKIEVFVQTLLHLAAKSFSHSFSALAKFHEVFKTLAESDKGKLHVLRVMFEVWRNHPQMIAVLVDKMIRTQIVDCAAVANWIFSSELSRDFTRLFVWEILHSTIRKMNKHVLKIQKELEEAKEKLARQHKRRSDDDDRGSDRKDGALEEQIERLQEKVESAQSEQKNLFLVIFQRFIMILTEHLVRCETDGTSILTPWYKNCIERLQQIFLQHHQIIQQYMVTLENLLFTAELDPHILAVFQQFCALQA
B6: Small nuclear ribonucleoprotein polypeptide (protein, UniProt D3ZZR5 1-255)
chain: MVKLTAELIEQAAQYTNAVRDRELDLRGYKIPVIENLGATLDQFDAIDFSDNEIRKLDGFPLLRRLKTLLVNNNRICRIGEGLDQALPCLTELILTNNSLVELGDLDPLASLKSLTYLSILRNPVTNKKHYRLYVIYKVPQVRVLDFQKVKLKERQEAEKMFKGKRGAQLAKDIARRSKTFNPGAGLPTDKKKGGPSAGDVEAIKNAIANASTLAEVERLKGLLQSGQIPGRERRSGPSDEGEEEMEDGTVTNGS
B7: granuphilin (synaptotagmin-like 4) (protein, UniProt Q8VHQ7 1-672)
chain: MSEILDLSFLSEMERDLILSVLQRDEELRKADEKRIRRLKNELLEIKRKGAKRGSQHYSDRTCARCQEGLGRLISKSNTCVGCNHLVCRECRVLESNGSWRCKVCSKEIELKKATGDWFYDQKVNRFAYRTGSDIIRMSLRRKPAVNKRETVGQSLLQQTQMGDIWPGRRIIQEQQKEQSVLFEVPKLKSGKSALEAESESLDSYTADSDSTSRRDSLDKSGLFPEWKKMSAPKSQVEKEIAPGNQNAVCGDEGDMIFKKNTRKVLRPSEYTKSVIDLRPEDVAQESGILGDRSKSVPGLSVDMEDEEEEEEDIDHLVKLHRQKLARGSMQSGSSMSTIGSMMSLYSEAGDFGNVSVTGKIAFSLKFEQKTQTLVIHVKECHQLAYADEAKKRSNPYVKTYLLPDKSRQGKRKTSIKRDTINPLYDETFRYEISESLLAQRTLQFSVWHHGRFGRNTFLGEAEVHMDSWKLDKKLDHCLPLHGKISTESSPGLPAHKGELVVSLKYIPASKLPVGGDRKKSKGGEGGELQVWIKEAKNLTAAKSGGTSDSFVKGYLLPMRNKASKRKTPVMKKTLNPHYNHTFVYNGVRLEDLQHMCLELTVWDREPLASNDFLGGVRLGVGTGISSGEVVDWMDSTGEEVSLWQKMRQYPGSWAEGTLQLRSSMVKQKLGV
B8: phosphatidylinositol 5-phosphate 4-kinase type-2 gamma (enzyme, UniProt O88370 1-420)
chain: MASSSVPPATAPAAAGGPGPGFGFASKTKKKHFVQQKVKVFRAADPLVGVFLWGVAHSINELSQVPPPVMLLPDDFKASSKIKVNNHLFHRENLPSHFKFKEYCPQVFRNLRDRFAIDDHDYLVSLTRSPPSETEGSDGRFLISYDRTLVIKEVSSEDIADMHSNLSNYHQYIVKCHGNTLLPQFLGMYRVSVENEDSYMLVMRNMFSHRLPVHRKYDLKGSLVSREASDKEKVKELPTLKDMDFLNKNQKVYIGEEEKKVFLEKLKRDVEFLVQLKIMDYSLLLGIHDIIRGSEPEEEGPVREEESEWDGDCNLTGPPALVGSYGTSPEGIGGYIHSHRPLGPGEFESFIDVYAIRSAEGAPEGGVFHGLIDILTQYDAKKKAAHAAKTVKHGAGAEISTVHPEQYAKRFLDFISNIFA
B9: Spermatogenesis-associated, serine-rich 2 (protein, UniProt F1LX68 1-550)
chain: MSRKQSQKDSSGFIFDLQSNTVLAQGGTFENMKEKINAVRAIVPNKSNNEIILVLQHFDNCVDKTVQAFMEGSASEVLKEWIVTGKKKNKKKKSKPKPASEASGSAPDSSKSAPAEEGQPASSEKGSINGYHVNGAINDTESVDSLSEGLETLSIDARELEDPEFATADALDRAGSVLENGVSDFEPKSLTTHSISNVQQSRNAAKSLSRATTGAQVSNLGMENVPLSSTNKKLGSNIEKSVKDLQRCTVSLARYRVVVKEEMDASIKKMKQAFAELQSCLMDREVALLAEMDKVKAEAMEILLSRQKKAELLKKMTDVAVRMSEEQLVELRADIKHFVSERKYDEDLGRVARFTCDVETLKQSIDSFGQVSHPKNSYSTRSRCSSLLPVSLLPVSCSGPSDVSAASSAPDASAPSLPGANKRNSAPREASAAMTNSSDRPCQAHREVFSGNRRGGQGYRPQNQKTTDPPNQGRHDNAGRYRNSSWYSSGPRHQAVPPQAPGSAGEWSRPYSAGTNGTGASSEPSPPKPSFKKGLPQRKPRASQAEAANS
B10: Nucleolar RNA helicase 2 (protein, UniProt Q3B8Q1 1-782)
chain: MPGKLRSASKSESEGTEESMETLQKPSEKKTRKEKPKSKTDEATEGVEEAASSKVKAVKKKGPSEDDVGPPKSKKAKKQEEEPQDDPASKSKTSKKKKEPLEKKAPSAKTKEMKAEEPSEEEADAPKPKKTKKGKEANGDVGEKSPGLKNGLSHPKPDSSSTQAPGEESETEKEIPVEQKEGAFSNFPISEETVKLLKARGVNFLFPIQAKTFHHVYSGKDLIAQARTGTGKTFSFAIPLIEKLQGGLQERKRGRAPQVLVLAPTRELANQVSKDFSDITKKLSVACFYGGTPYGGQIERMRSGIDILVGTPGRIKDHLQNGKLDLTKLKHVVLDEVDQMLDMGFADQVEEILCVAYKKDSEDNPQTLLFSATCPHWVFNVAKKYMKSTYEQVDLIGKKTQKAAITVEHLAIKCHWTERAAVIGDVIRVYSGHQGRTIIFCETKKDAQELSQNTCIKQDAQSLHGDIPQKQREITLKGFRNGNFGVLVATNVAARGLDIPEVDLVVQSCPPKDVESYIHRSGRTGRAGRTGVCICFYQHKEEYQLAQVEQKAGIKFKRIGVPSATEIIKASSKDAIRLLDSVPPTAIGHFKQSAEKLIEEKGAVEALAAALAHISGATSVDQRSLINSQAGFVTMILRCSVEMPNISYAWKELKEQLGESIDAKVKGMVFLKGKLGVCFDVRTEAVTEIKEKWHDSRRWQLTVATEQPELEGPPEGYRGGRGQRDGSRGSFRGQRGGSRNFRGQGQRGGSRNFRGQRPGGGNKSNRSPNKGQKRSFSKAFGQ

Biological target: StAR Related Lipid Transfer Domain Containing 10 (rat (endogenous in INS1 (832/13)))
Test: affinity purification with mass spectrometry; endogenous STARD10 immunoprecipitated from 1 mg INS1 (832/13) lysate with anti-PCTP-L (STARD10) antibody on Dynabeads Protein A, overnight at 4 °C; lysis buffer 20 mM HEPES, 150 mM NaCl, 1% Igepal; compared with rabbit IgG isotype control; on-bead trypsin digest, TMT labelling, nano-LC MS/MS

Q: Which binding does the source give for B1 here?
A: binds

Q: B2 was tested. Which binding did it give?
A: binds

Q: For B3, which binding is on record?
A: binds

Q: For B4, which binding is on record?
A: binds

Q: Which binding does the source give for B5 here?
A: binds

Q: How did the binding turn out when B6 was run?
A: binds

Q: B7 was tested. Which binding did it give?
A: binds

Q: For B8, which binding is on record?
A: binds

Q: How did the binding turn out when B9 was run?
A: binds

Q: With B10 as the binder, how does the binding read?
A: binds
